Measured values as given in article PMC11651612.
Results are given in words; binding and its absence hold for the method and conditions named. Binding seen in cells or lysates may run through a third protein. Here binding means that the protein was enriched with, or labelled near, the bait; the list need not be complete. Values belong to the binder of their own block, whether it stands above or below them.

Molecular target: T1, Cdc3-mCherry (C. neoformans) (UniProt J9VUF2)
T1 sequence: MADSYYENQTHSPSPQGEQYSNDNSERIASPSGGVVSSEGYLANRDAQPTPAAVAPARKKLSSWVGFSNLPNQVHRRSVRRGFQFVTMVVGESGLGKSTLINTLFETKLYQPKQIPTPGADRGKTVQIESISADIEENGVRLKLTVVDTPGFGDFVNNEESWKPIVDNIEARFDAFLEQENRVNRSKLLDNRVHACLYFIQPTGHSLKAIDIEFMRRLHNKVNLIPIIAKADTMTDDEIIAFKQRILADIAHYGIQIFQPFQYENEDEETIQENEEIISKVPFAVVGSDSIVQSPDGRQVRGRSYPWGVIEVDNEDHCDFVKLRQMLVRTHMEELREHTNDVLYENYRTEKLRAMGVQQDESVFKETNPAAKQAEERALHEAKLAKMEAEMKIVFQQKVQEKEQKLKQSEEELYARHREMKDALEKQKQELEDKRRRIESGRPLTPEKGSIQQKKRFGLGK
Assay: affinity purification with mass spectrometry; mCherry-tagged septin captured from C. neoformans lysate on RFP-Trap agarose, 4 h at 4°C, washed with TBS with 2 M urea pH 7.5; GeLC-MS/MS; untagged H99 as negative control; hits logFC >2 and adjusted p <0.001 (text-named hits <0.05); exponential cultures at ~25°C or shifted to 37°C for 2 h; N = 5

binding: binds
B1: Cytochrome c oxidase subunit (protein, UniProt J9VPH6 1-82)
chain: MAEDKTFVLQTTGFDARFPNQNQTKHCWQNFVDYHKCVNAKGEEFAPCQQFKKAFRSLCPNDWVGQWNEQIEAGTFPASLKP

binding: binds
B2: Thioredoxin (protein, UniProt J9VKF2 1-104)
chain: MVKAIESYDEWKTLTSGSDVVVVDYWATWCGPCKMISPHFAKLEGKFPNVKFAKVDVEEQEDIAKEAQIKAMPTFVAYKDGKVIETVTGAVPAKINALLDKVAA

binding: binds
B3: DASH complex subunit DAD3 (protein, UniProt J9VIU7 1-112)
chain: MSINTVNPYENNSQLSQLEQELLWEFAKLSDKVKRAASLAKLTAESPNESLLAELRTLEKRMGLVLTLVKASVWAVIVDSQAAEEARQQQSAESAPEISHNETRSWDDSIMQ

binding: binds
B4: Inositol hexakisphosphate and diphosphoinositol-pentakisphosphate kinase (protein, UniProt J9VSQ9 1-1117)
chain: MSMLPPKSPSVKRFTQNTEKRPTSPSPSSLLMNLNTPSLAAPKQPKVVLGVCAMDVKARSKAMREILTRLVDIEKGGLEVKIFGDVVILEEDISHWPPVDVLISFFSTDFPLPKAISYTQLPNRPPPISINSLSMQSLLWDRRLVLAILDHIGVPTPSRAEISRDGGPRIPRSLRRQVRRELGLVLPGPKAKDEDEWGEVVIPEKWRGKQRKDPVPKATEVILREDGDAILVGDHVIEKPFVEKPVDGENHNVFIYYKGGGGRRLFRKVGNKSSEYDPNLYHPRTIGSFIYEEFINVDNAEDIKVYTVGSKFSHAETRKSPVVDGLVRRNADGKETRFITPLSEAENQYARDVVEAFGQRVCGFDLLRCEGGSRSMVIDVNGWSFVKGNQAYYDKAAEILSGVCQIARERKVQGIQAGLASTTTIDDPSGGSTTSTLRATVTVLRHADRTPKMKLKFSFPAHEAWSQPFLRLLRGHREEIILRDTRQLQYILAAAEESSQTPGITGEQLLKLSQIKEALGKKMSFPGTKAQLKPSFVKKKGDKNEKKDKKKNDEDKEDEGDVTETEGRKKVNDWLRKGESAQAANMDSTLLTEPPMSATGSVDAIPQSSEPRSPEPETTQDETVKDKHAGCVSDPDIPEGLEKMQLVVKWGGESTHSSRYQSRDLGDAFKKDIMIMNKDVLNNVKIYTSSERRVINTAQIFAHALLGVEGSSSSSASSIANARNPPEQGPQISHLIQRRDLLDDNNAAKDLCTDAKKKLKMLLRTGETERRPDLAWPKSFKKEPVEVVSDVIEQLTELRAIMRRNYENGNVEKIPQQRWCSGDSPWLFKERWEKIFDDWVGVKQEKFDPSRVSELYDSIKYDSLHNRTFLFAVFDPAGKGQASKAGAPNQDRRLHDLFGRAKALFDLVAPQEYGFDAEAKEEIGVLTSLPLLRKVWEDLDEAKTTGKSLACFYFTKESHITTFVHLLLASGLPFTNVRIPELDYCSHCTIELWEKSTGSGQKDFSIRLSISEGAHSPAVLDSNVDARHSLTVQPRKKLSSHIDYELARQCFSKHFNKGLSFSTTPLEGDEVYLKKSIEDESVLPLSSLHHKAGDETPRMISSASSDRSHPGASDGGW

binding: binds
B5: Heat shock protein 9/12-domain-containing protein (protein, UniProt J9VJQ8 1-70)
chain: MSDAGRQSLADKASSSMKPDSEKSYVEQASDFISGKLDSAASAVQPQQEKSTTQKIGDAVSGDNRNRDVA

binding: binds
B6: U3 small nucleolar RNA-associated protein 5 (protein, UniProt J9VI77 1-714)
chain: MAPRQPVAGPSKPKHSQQPAIQSPPAPAAVSAFNSTRTLFALASPVLGQADKVQVWDVAGDRVISEWEVVGASKASSVCFTTVPSDAASTKKKRRKSGSGRGAEEEVVLVTTSKSQLLVLSTKQTEPLRTLDLPASVTAAWSEERASILATASSLLVLSADASSISHTFTLPSSLSSPTAITILPTSTAESLHVLVASSLVVTLHLSLASQEVTFVSSPLPASTSSISSLLPLPLTEQGASFLVVSEDDRTISQYTLTSPQSPARLSYRYASPTLSSAHSITADPDLLAVLHESGEISLFRLPSELDLSRPQSDAKPSTVKIVEGKEERTARLCRVAFAPVDDGASGALLCGRLTGGGRVKWSRAIYELPEGGLRPVTVVKVEAQELVGASSVSETVPVQRYVAPNTVNEAAPEDVDEAPVSQLPSDVNMAELSLGERMLAPDSQEADTGSKPAASSAGVTLDGPVNAASLTRVLVQALHTSDPALLTLCLSHRNPVLIRNTIRKMPPQLALPLLKACVERLGQGKGANKRGGGRGAAQNEQQGRGTVEWVKGVLVERGSILMTIPSLPVHLASLSQLLQNRLELNQPLQTLSGRLDLALAQITMRRIAAEQALENAKNGGQKGGEGEIYVEGESEDEDEIIEVGEDGGEIEDIDMGGLSESDESEEEEEEEEDEDEDEESDDDPLDSGSDNDLLDLQAEESGSDDEEESEDED

binding: binds
B7: protein-ribulosamine 3-kinase (protein, UniProt J9VPD5 1-303)
chain: MPTITQPIANIFKAAHIPANELSIAASTSGFIITHSTTGKQYFTKTDRNVPQMRGEVASLLAMSKTSTGLVPEVLGFEVSPDGKEATMVTQWFDLSSARGGHTQRGLGSKLAQMHMPPPEGTEGYEGKYGFPVPTHCGATEQDNTWEESWEVFWRDRRLGNLVNRIGDKEINALWEDMKRRAVPLLLHSFSPAPQPVILHGDLWSGNAGYDETTSSPVIFDPASYYGHNEADLGITRMFGGFSYEFYDEYHQVHPRSSPYYNERQKLYELYHHLNHTYMFGGSYKHGAMGIMKSLIEWAEKEE

binding: binds
B8: Hsp90 chaperone protein kinase-targeting subunit (protein, UniProt J9VJV8 1-504)
chain: MPLNYSKWDMLELSDDSDIEEHPNVDKKSMIRWKQRDIHEKREARKLLISKLKSELSLNSVLRPRIETIISGLSSSGLDHYRAVQRRMKEDPSPEKPETGAPNQPTYDMMLSQLLSDVFREGAWLVEGGKVEGNGVLYNGKKVDDNTGLPDWATAEVPEGKKELLAEKLEQRLRWHVSELNRRDEQVKKEIEKEEGELKKKITSDDIHEGWSSSKIAPPKPSVWDETPKPKKGKKTEKVETIEVLNPKASSSAAPVAPATEDTDDEEDFGPLSPAGRAFAQIPLGDFEKSYDFIKNDSSVLSSSTHDSLLAEAFDAERRGDKSLAMRCVHQSLLVNYCRQLGKDGVGLFFQKMIQKNPKSITMFNEDFQRTYNRIATRTREILAEEAAAPSGEREQIQLVATDPNMTIAFNLPDGPPPEKILLEGEGVEELDMEQVRAWLQQKWDIFKSFPPRFQEALKTENLDKVNKVLGDMKVPEAEKIVELLQEGGMLSFSEKGVRDMTNQ

binding: binds
B9: U4/U6 small nuclear ribonucleoprotein PRP4 (protein, UniProt J9VQ13 1-511)
chain: MDLDDLITDNTYQLGGIDDERERAQNAAIIEELERKKRLRKLAVPTDDKKVRERLRAYGEPITLFGEGPGDRRDRLKYVQEQIEQAKGEGGMVVDESDESSDEDEEGEFYTEGSDDLLEARRKIARYSLSKARARIARQRREYSVPLGKLVNARKELFKELKSFNNFGSQFGDDRPLSTIRFSPSSQYILTTSWTGDTKLWDLPNLNPISTKRGHTEKVGGAAWHPFATVGASEEAVNFATGGGEGDVKLWSLSGEKPLSTLSGHTSRVGRLAFHPSGAYLASAGFDGTWRLWDVESSKELMTQEGHSKEVYAVGCQDDGALIASGGFDAIGRVWDLRTGRTAMVLDGHVKEILAMDFAPNGYQIATGSGDDTVRIWDLRALKTQYIIPAHKSSVADVKFFRSSGELPPIGIQGLPLSSRAAEVDGMDVDKSNDTEDKEKEERLSRSGMFLVTAGFDCNVRIWSADEWNMVRNLSTDAGKVMSVDVSGDGKFVASASYSRSFHLFGGENSL

binding: binds
B10: NAD-binding Rossmann fold oxidoreductase (protein, UniProt J9VMJ0 1-400)
chain: MSTNVALLGSGVFAQASYVPALLSLARFKTLVLHTIWSRSESSAQTLHAKYTSVGAPSPQLLYGDDGLEAVLANKEIDAVLFVLPITKQPDLVRKAWKAGKHVLSEKPLARDVKEAVELIEEYERDYKPKGLIWRVAENYAHEPALRFAGDILSKTPNLGPVLFWDIKFTAYVEDGSKYHATGWRTIPDYQGGFLLDGGVHWAALLRTVLPPAALPASFIGFASLHRTHLLPHDTIQAIALPDPSATIPPNGPKSKLDSAVYTEKDLASQPGQSTPRGQITFSFANPDMPPEGRTSNGLVVTLLNGVLTIEQTFDRRFITTLIPAEGSGLEKKTITTKQVGVEVEIEMFVNAVQAIKEGRENKEENFGEPRGALWDLSVLEAMLKSDGKEINLESLVKGE
